Drawing on publication PMC3184163, “The Amino-Terminus of Nitric Oxide Sensitive Guanylyl Cyclase α1 Does Not Affect Dimerization but Influences Subcellular Localization” (PLoS ONE, 2011), this text covers binding for four molecules.

Protein sequences, listed by entry. Tags and fused reporters are not part of them.
UniProt P20595: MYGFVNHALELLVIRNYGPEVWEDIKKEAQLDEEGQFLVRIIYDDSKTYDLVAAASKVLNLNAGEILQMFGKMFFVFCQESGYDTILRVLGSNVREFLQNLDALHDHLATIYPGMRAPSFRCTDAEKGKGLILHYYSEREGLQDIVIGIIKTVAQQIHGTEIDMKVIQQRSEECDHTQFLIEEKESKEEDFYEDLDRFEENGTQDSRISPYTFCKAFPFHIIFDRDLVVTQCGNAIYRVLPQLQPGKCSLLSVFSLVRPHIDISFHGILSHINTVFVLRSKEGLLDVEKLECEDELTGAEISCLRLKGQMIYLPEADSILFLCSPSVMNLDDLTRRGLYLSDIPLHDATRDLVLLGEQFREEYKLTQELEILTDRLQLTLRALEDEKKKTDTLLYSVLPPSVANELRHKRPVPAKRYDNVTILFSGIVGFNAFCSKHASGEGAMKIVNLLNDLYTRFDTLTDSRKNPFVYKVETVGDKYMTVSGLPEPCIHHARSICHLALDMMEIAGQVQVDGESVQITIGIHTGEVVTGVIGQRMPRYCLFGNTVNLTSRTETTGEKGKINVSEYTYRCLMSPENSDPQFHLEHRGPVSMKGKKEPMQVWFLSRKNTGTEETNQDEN

Assay [1] deals with nitric oxide sensitive guanylyl cyclase β1-subunit with carboxy-terminal Strep Tag II (UniProt P20595). In words: pull-down; same co-purification on Strep-Tactin through β1-S, quantified from Western blots instead of Coomassie gels (data not shown).
For assay [2] the target is unchanged. The experiment in a line: pull-down; co-purification: α1 variant expressed with carboxy-terminally Strep Tag II tagged β1 in Sf-9; cytosolic fraction applied to Strep-Tactin Superflow resin; buffer W 100 mM Tris-HCl, 1 M NaCl, 1 mM EDTA, 1 mM benzamidine, 10 mM DTT, pH 8.0; eluted with 2.5 mM D-desthiobiotin; on ice or at 4°C; SDS-PAGE, Coomassie staining, densitometry; cells also cultured without supplement, with hemin (4 mg/l), or with hemin and lipid supplement.

Assay [3] concerns the target rat β1-subunit, carboxy-terminally tagged with ECFP (rat) (UniProt P20595). The experiment in a line: FRET or BRET; FLIM-FRET in intact HEK-293 cells, 37°C, 48 h post transfection; ECFP donor and EYFP acceptor carboxy-terminal on the α1 variants and β1, or vice versa; negative control ECFP donor alone; 405 nm pulsed laser. (In general: BRET reads energy transfer from a luciferase to a nearby fluorophore.)

For assay [4], the target named is rat β1-subunit, carboxy-terminally tagged with EYFP (rat) (UniProt P20595). The description is as above.

These are yes or no findings as the source states them, for the method shown. Binding seen in cells or lysates may run through a third protein. Some entries that bind do so weakly or less than the wild type. For part of these data: Where a sequence is shown, tags or fusion partners need not be part of it.

B1: C-α1 splice variant of the nitric oxide sensitive guanylyl cyclase α1-subunit (human α1ΔN259) (domain or fragment, UniProt Q02108-1 259-690, looked up)
chain: MKSTKPSLSPSKPQSSLVIPTSLFCKTFPFHFMFDKDMTILQFGNGIRRLMNRRDFQGKPNFEEYFEILTPKINQTFSGIMTMLNMQFVVRVRRWDNSVKKSSRVMDLKGQMIYIVESSAILFLGSPCVDRLEDFTGRGLYLSDIPIHNALRDVVLIGEQARAQDGLKKRLGKLKATLEQAHQALEEEKKKTVDLLCSIFPCEVAQQLWQGQVVQAKKFSNVTMLFSDIVGFTAICSQCSPLQVITMLNALYTRFDQQCGELDVYKVETIGDAYCVAGGLHKESDTHAVQIALMALKMMELSDEVMSPHGEPIKMRIGLHSGSVFAGVVGVKMPRYCLFGNNVTLANKFESCSVPRKINVSPTTYRLLKDCPGFVFTPRSREELPPNFPSEIPGICHFLDAYQQGTNSKPCFQKKDVEDGNANFLGKASGID
notes: α1-subunit of nitric oxide sensitive guanylyl cyclase, human, amino-terminal deletion α1ΔN259; predicted 48 kDa; The name ΔN259 could also be read as loss of the first 259 residues; also called C-α1-splice form; source: Sf-9, recombinant baculovirus, cytosolic fraction; co-purified with β1-S on Strep-Tactin
Take B1: the binding result in assay [1] and in assay [2] was “binds” in each case.

B2: nitric oxide sensitive guanylyl cyclase α1-subunit, wild type (human) (natural protein, UniProt Q02108-1 1-690, looked up)
chain: MFCTKLKDLKITGECPFSLLAPGQVPNESSEEAAGSSESCKATVPICQDIPEKNIQESLPQRKTSRSRVYLHTLAESICKLIFPEFERLNVALQRTLAKHKIKESRKSLEREDFEKTIAEQAVAAGVPVEVIKESLGEEVFKICYEEDENILGVVGGTLKDFLNSFSTLLKQSSHCQEAGKRGRLEDASILCLDKEDDFLHVYYFFPKRTTSLILPGIIKAAAHVLYETEVEVSLMPPCFHNDCSEFVNQPYLLYSVHMKSTKPSLSPSKPQSSLVIPTSLFCKTFPFHFMFDKDMTILQFGNGIRRLMNRRDFQGKPNFEEYFEILTPKINQTFSGIMTMLNMQFVVRVRRWDNSVKKSSRVMDLKGQMIYIVESSAILFLGSPCVDRLEDFTGRGLYLSDIPIHNALRDVVLIGEQARAQDGLKKRLGKLKATLEQAHQALEEEKKKTVDLLCSIFPCEVAQQLWQGQVVQAKKFSNVTMLFSDIVGFTAICSQCSPLQVITMLNALYTRFDQQCGELDVYKVETIGDAYCVAGGLHKESDTHAVQIALMALKMMELSDEVMSPHGEPIKMRIGLHSGSVFAGVVGVKMPRYCLFGNNVTLANKFESCSVPRKINVSPTTYRLLKDCPGFVFTPRSREELPPNFPSEIPGICHFLDAYQQGTNSKPCFQKKDVEDGNANFLGKASGID
notes: predicted 77.6 kDa; also called α1WT; α1 full-length; source: Sf-9, recombinant baculovirus, cytosolic fraction; co-purified with β1-S on Strep-Tactin
As to B2, the binding result in assay [1] and in assay [2] was “binds” each time.

B3: rat C-α1 (rat α1ΔN258), carboxy-terminally tagged with EYFP (domain or fragment, UniProt P19686 259-690)
chain: MKSTKPSLSPGKPQSSLVIPTSLFCKTFPFHFMLDRDLAILQLGNGIRRLVNKRDFQGKPNFEEFFEILTPKINQTFSGIMTMLNMQFVIRVRRWDNLVKKSSRVMDLKGQMIYIVESSAILFLGSPCVDRLEDFTGRGLYLSDIPIHNALRDVVLIGEQARAQDGLKKRLGKLKATLEHAHQALEEEKKKTVDLLCSIFPSEVAQQLWQGQIVQAKKFNEVTMLFSDIVGFTAICSQCSPLQVITMLNALYTRFDQQCGELDVYKVETIGDAYCVAGGLHRESDTHAVQIALMALKMMELSNEVMSPHGEPIKMRIGLHSGSVFAGVVGVKMPRYCLFGNNVTLANKFESCSVPRKINVSPTTYRLLKDCPGFVFTPRSREELPPNFPSDIPGICHFLDAYQHQGPNSKPWFQQKDAEDGNANFLGKASGVD
With B3, in assay [3], the binding result is on record as “binds”.

B4: rat C-α1 (rat α1ΔN258), carboxy-terminally tagged with ECFP (domain or fragment, UniProt P19686 259-690)
chain: B3 chain
For B4, the binding result in assay [4] is “binds”.
